From PubChem BioAssay AID1508600 (Functional Genomics Laboratory (NCATS/FGL), 2020)
Among all 53,000 sequences or so, about 3,700 (7%) were called active.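 Rule for the calls: active = gene knockdowns whose robust z-score for IL-1 alpha signal is at least 2 or at most -2, so actives lie on both sides; inactive = the rest.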 Some of the results follow.

Assay: Components of the Cytosolic LPS Sensing Pathway: Gene Identification via Genome-wide siRNA Screen;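 note: robust z of the log signal after scaling to non-targeting control siRNA wells of the plate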
Conditions: RAW264.7 macrophages, IL-1a HTRF, actives lie on both sides, screened at 100 nM (by protocol), cells primed 5 h with Pam3CSK4 first
Summary of the method: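 Three distinct siRNAs per gene were tested singly at 100 nM in RAW264.7 macrophages. Following Pam3CSK4 priming and 24 hour LipidA transfection, IL-1a secretion was read by HTRF.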

| Sequence | z-score |
| --- | --- |
| GGACAAAACUAAACAGCAATT against Smarcal1 | inactive: -0.662 |
| GGGAGGCAGAAAGUCUUCUTT against Olfr1043 | inactive: -0.192 |
| GGACAAAUUUGGAUAAAUGTT against Abcg8 | inactive: -0.367 |
| GGUGCAUGGGACUUAAUAGTT against Nelfb | inactive: 1.56 |
| GGACUGCUUUUGCUAUGAATT against Cys1 | inactive: -1.07 |
| GGUGAUCCAAGACUUCCAGTT against Actl6b | inactive: 1.16 |
| CCCUAUUGAGAAGUGUAUGTT against Il4i1 | inactive: 1.13 |
| GGCACUCAGGAACUUCCUGTT against Eci3 | active: -2.05 |
| GGAUUUGGAUUGACCCUUGTT against Grwd1 | inactive: 1.11 |
| GGUCAGAUAAAACUCUUCATT against Bmi1 | inactive: -0.398 |
| CCACAUGACCUACUUUUCCTT against Togaram2 | inactive: -0.337 |
| GCCUGUGCUUAAUUUAAGGTT against Yme1l1 | inactive: -0.346 |
| GGAUCAAUGCAUGGAAUUCTT against Ugdh | inactive: 1.57 |
| GGAUUUUGCUCAGACGACATT against Taf1a | inactive: 0.291 |
| GGUAACCACAGUAGUGGCATT against Gsk3b | inactive: -1.03 |
| GGUCAAGUUCAAGUGAGGATT against Ptgr2 | inactive: -0.582 |
| GGAACUCACUUACUUAUGUTT against Prrx2 | inactive: 0.669 |
| GGCUUUAAGGGACAACUGATT against Yipf3 | inactive: -0.576 |
| AUCUCAGCCUUGGUACGUGTT against Nkain1 | inactive: -1.86 |
| GGUGACAGUACAGAAAAGUTT against Rnf135 | inactive: 0.118 |
| GUGUAUGUUCACCAAGCUCTT against Klk1b16 | inactive: 1.24 |
| GGGCCAGCUUUCAAUAUUGTT against Man2a1 | inactive: 0.723 |

Part of the list above, with tabs:
Sequence	z-score
GGAUUUUGCUCAGACGACATT against Taf1a	inactive: 0.291
GGUAACCACAGUAGUGGCATT against Gsk3b	inactive: -1.03

Remaining list, next part:

| Sequence | z-score |
| --- | --- |
| GGUACUUUGAUGACGAGUUTT against Akt2 | inactive: -1.91 |
| GGAUACUUGAUGAACUUUGTT against Ano2 | inactive: -0.845 |
| GCCAACCUGUACGAAAAAGTT against Zfp868 | inactive: -0.945 |
| GCCUGAUAGUGCAGAAACATT against Rabl2 | inactive: -0.233 |
| GCCCAAAGUGAUUCACUAGTT against Acvrl1 | inactive: -1.54 |
| GGUGUUCAGAUGGUUCCCATT against Exosc1 | inactive: -1.19 |
| GGUGCUCGAAAACUGGUUCTT against Tbrg1 | inactive: -0.368 |
| GGAUGUUCUGAGGACCAACTT against Cct6a | inactive: 0.25 |
| GGCCCAUCCCACAAUGAUATT against Atg9b | inactive: -0.998 |
| CCAUACACAUGUAAUUCUCTT against Zmat3 | inactive: -0.159 |
| GGAUACUGGCAUGAAAUUGTT against Slc22a2 | inactive: -0.888 |
| GCGAAUGCUUAAAAUAGCATT against Ift81 | inactive: 0.333 |
| GGGAUGCUGUAGAUAUUAATT against Fcgr2b | inactive: -0.622 |
| GCUACUCCAUUUACAUCUATT against H2bc1 | inactive: -0.122 |
| CGAUGGUCGAAGGAUUGUCTT against Tnfsf4 | inactive: -0.837 |
| CCAUUUCAGGCAUGAAGAATT against Tsga10 | inactive: -1.13 |
| GGUUGAACCCACUCUGCAATT against Olfr1113 | inactive: -0.752 |
| CCAACACUGAGCUCAGAAGTT against Igfbp2 | inactive: -1.34 |
| UGGUUUCUCAAGCACUAGUTT against Kpna7 | inactive: -1.85 |
| GCUGUAUGAAGUUAGAUUUTT against Car8 | inactive: 0.019 |
| GGUUUGUUUUACAAAAUGCTT against Zdhhc5 | inactive: 0.37 |
| GGCACAAUCACAUCACAGCTT against Lrrtm2 | inactive: 0.622 |

| Sequence | z-score |
| --- | --- |
| GGAUGCAGUUCAAAAGAGATT against Acox2 | inactive: -0.573 |
| CGAGAUCAGAAAACUGACUTT against Cpa4 | inactive: -0.825 |
| UGACUGGGCUAAUAGGAGATT against Olfr1469 | inactive: 0.607 |
| GCUCUUCAUAACUCUUGCUTT against Olfr1392 | inactive: -0.288 |
| GCUUGUGCGAGUGUUGGAUTT against Has1 | active: 2.21 |
| GCACCCGGCACUAGAAAAATT against Shoc2 | inactive: 1.02 |
| GGUUUUUCCAGCUGUUUUCTT against Olfr618 | inactive: -0.232 |
| GGUCAAGGAAUUAGUGAUUTT against Tctex1d1 | inactive: 0.398 |
| GCUCCUCGAAUCCCUGUAGTT against Per3 | inactive: -0.622 |
| CGAGGUCAAUUUUAGAGAGTT against Eloc | inactive: -0.722 |
| GGAUCACAGUGGUUCAGAATT against Snai2 | inactive: 1.31 |
| CCAGUCUCCGCCUCAGUAATT against Tex13c3 | inactive: 0.309 |
| GGAAAAAUCAUGGAGAAAATT against Dhodh | inactive: -0.575 |
| GGUCUUAAGGAGAAAUGAATT against Cbln2 | inactive: -0.48 |
| UCCAGCUGGCGAAGUGGGCTT against Hs3st6 | inactive: 1.36 |
| GGUCAUCACUUAUUACCCATT against Ptges2 | inactive: -1.72 |
| GGACUACAGUCAUUAUUCATT against Sycp2 | active: 3.25 |
| GCAGACUGAAUAUUGAAAGTT against Cry1 | inactive: 0.12 |
| CCAUCCCAUAUAACGAUCUTT against Oat | inactive: 0.00726 |
| CCCAUAGAUUUUUUGACAGTT against Hbb-y | inactive: -0.716 |
| GGACUCCAGAGAAAGAGGCTT against Tcf15 | inactive: -0.854 |
| CCCUCUGGUUACUAUUAUUTT against Tmem254a | inactive: 0.808 |

| Sequence | z-score |
| --- | --- |
| CCAGUUCAAGAGACUCGUATT against Dio1 | inactive: 0.659 |
| CCUUCAUGUCUGCAUAUUUTT against Cth | inactive: -0.951 |
| GGUGUGCUGAGAAGUACUGTT against Acot9 | inactive: -1.91 |
| GCUAAGAAAGUACAAACCATT against Tmpo | inactive: -1.12 |
| GGGAGAAACAAGUGUGUAATT against Snrnp35 | inactive: 0.246 |
| GGGAUUGGAAGAGAAAUGGTT against Hsd11b1 | inactive: 0.362 |
| GGCUUUCACGCUUUGACAATT against Ap1m2 | inactive: 0.209 |
| GGGUAACUAACAUUAAUGGTT against Adam12 | inactive: 1.58 |
| GGCAUUGUAGAGAUGACUCTT against Trmt2b | inactive: 1.81 |
| CCCUACCUUGAACGAGUACTT against Apoa1 | inactive: -1.02 |
| GGUGGACUGGAUCUGAAUGTT against Caap1 | inactive: -1.33 |
| GCACACCAGAACUGCAGCUTT against Olfr967 | inactive: -0.724 |
| GGCUGUUGAGUAUAUAUAUTT against Slc6a8 | inactive: 0.309 |
| GGAAAGCUUGAAUGUUGAGTT against Mup3 | inactive: 1.44 |
| GGGAGCAAAAGCUUUACUUTT against Prl3c1 | active: 2.25 |
| GCAUCAUUUCUGGGAUGGGTT against Scrg1 | inactive: 0.0371 |
| GGUCUACAGGCAUCAAUGATT against Nr5a1 | inactive: 0.425 |
| GGAUAGAGACUGAUGCUCATT against Sh2d1b1 | inactive: -0.226 |
| GGACAGGAUGAGUUUGACATT against Rhou | inactive: -1.52 |
| GGCUCAUUCACUAAUCCGATT against Gemin2 | inactive: 0.0536 |
| CAUGUCAUGCACAAUAGUUTT against Cd200r4 | inactive: -0.863 |
| CCACCCUGCACAGAAUCUATT against Ppp2r5c | inactive: 0.396 |

| Sequence | z-score |
| --- | --- |
| CCAUUGAUGUUUGAUCGGATT against Fndc4 | inactive: -0.849 |
| GGGCUUUGACUUCAAGACUTT against Mat1a | inactive: -0.14 |
| GGGUCAGAAUGUUUCCUUCTT against Olfr331 | inactive: 0.946 |
| GGAAAUGCUUGUUAAGGCUTT against Rwdd3 | inactive: 0.0372 |
| GGCGUAGAUGAGUUGGAAATT against Tceal8 | inactive: 0.544 |
| GCGUGGUGAACAACUAUGCTT against Slc35b4 | inactive: 0.3 |
| GGGAAGUUCGAGCCAAUGUTT against Batf | inactive: 1.5 |
| GCCUUAGGCCUUUGUUUCCTT against Tpgs2 | inactive: 0.124 |
| GCAUCGUUUGUGAGAAUUUTT against Perp | inactive: -0.61 |
| GGUAAUGUAUUUCAGCUCCTT against Slc6a17 | inactive: -0.527 |
| GGCUCUUAGAUACACUUGUTT against Dnajc12 | inactive: -1.94 |
| GCCGAGGUAUCCCUUGUUUTT against Sestd1 | inactive: -0.455 |
| GCAAACGAGCUAGUUGUAUTT against Olfr1137 | inactive: 0.481 |
| GUUCUGAGAAGAAACCCAUTT against Vmn1r208 | inactive: -0.292 |
| GGAGCAGUUCCAUAUGUGCTT against Cap1 | inactive: 1.75 |
| GGAAAAGGAUAAGGAAAGCTT against Zfhx3 | inactive: 1.61 |
| GGAGUUGGAGUUUAUAUUATT against Olfr846 | inactive: 0.0237 |
| CCAUAAGUUUGAAGAAUCCTT against Glg1 | inactive: 1.45 |
| CCCAAAAUGACAUAACAGATT against Pilra | inactive: -0.568 |

As entered above.
GGUCAAGGAAUUAGUGAUUTT against Tctex1d1 – z-score: inactive: 0.398
GGGAGAAACAAGUGUGUAATT against Snrnp35 – z-score: inactive: 0.246
GCCUUAGGCCUUUGUUUCCTT against Tpgs2 – z-score: inactive: 0.124
